Test results taken from PubChem BioAssay AID192 (DTP/NCI, 2004).
The list shows only some results of the screen, not a fair sample: it gathers tests that were run many times, whatever their T/C, doses with no T/C, and many T/C values between a quarter and a half above the control. Further doses and runs are listed elsewhere. T/C: endpoint of the treated group in % of that of the vehicle group. Some entries give survivors of the animals treated and no T/C: the source holds a T/C of zero for them, seemingly a mark for toxic or unscored doses. Some survivor counts are full or nearly so, which does not show that the dose was tolerated: survival well below the control is almost never listed, so the zero probably covers shortened survival too. Counts of survivors are from the toxicity check (mostly the fifth day) where no day follows; animals may have died later. Schedule codes are those of the source, read here as Q, the interval in days (D) or hours (H), X, the number of doses. Some schedules carry Z or #; the key to these is not given. Some structures stand for samples that the source files as different forms (salt, stereo form or complex); doses refer to the form tested. For survival time, this PubChem deposit counts one and a half times the control or more as active, and values a quarter to a half above the control carry no call in these data; other NCI protocols may use other cut-offs. Some T/C values are followed by the survivors on the day toxicity was checked, most often the fifth; without a count, all were alive then.

Tested on: BDF1 mice, B16 melanoma ip, median survival T/C
Assay: NCI In Vivo Anticancer Drug Screen. Data for tumor model B16 Melanoma (intraperitoneal) in B6D2F1 (BDF1) mice
Details: T/C endpoint: median survival time, higher T/C = longer survival
In short: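 Each result divides a survival or tumor-size measurement in the compound-treated group by the same measurement in the vehicle group.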

[1] = dose: 200.0 mg/kg/injection, schedule: Q01DX009 (ip), vehicle: saline with Tween-80
[2] = dose: 400.0 mg/kg/injection, schedule: Q01DX009 (ip), vehicle: Klucel (hydroxypropylcellulose) (HPC)
[3] = dose: 100.0 mg/kg/injection, schedule: Q01DX009 (ip), vehicle: saline
[4] = dose: 100.0 mg/kg/injection, schedule: Q01DX009 (ip), vehicle: Klucel (hydroxypropylcellulose) (HPC)
[5] = dose: 200.0 mg/kg/injection, schedule: Q01DX009 (ip), vehicle: Klucel (hydroxypropylcellulose) (HPC)

## COc1cccc2c1C(=O)c1c(O)c3c(c(O)c1C2=O)C[C@@](O)(C(=O)COC(=O)Cc1cccc2ccccc12)C[C@@H]3OC1CC(N)C(O)C(C)O1 (some centres undefined)
dose: 0.5 mg/kg/injection, schedule: Q01DX009 (ip), vehicle: saline with Tween-80
  T/C: 135 % of control
dose: 8.0 mg/kg/injection, schedule: Q01DX009 (ip), vehicle: saline with Tween-80
  survivor count: 10 of 10
dose: 16.0 mg/kg/injection, schedule: Q01DX009 (ip), vehicle: saline with Tween-80
  survivor count: 10 of 10

## CC(C)CN(CC(C)C)c1ccc([N+](=O)[O-])cc1[N+](=O)[O-]
dose: 50.0 mg/kg/injection, schedule: Q01DX009 (ip), vehicle: saline with Tween-80
  survivor count: 10 of 10
dose: 100.0 mg/kg/injection, schedule: Q01DX009 (ip), vehicle: saline with Tween-80
  survivor count: 10 of 10
[1]
  survivor count: 10 of 10

## CCC[CH2][Pb]([CH2]CCC)([CH2]CCC)[O]C(=O)CCl
dose: 3.13 mg/kg/injection, schedule: Q01DX009 (ip), vehicle: Klucel (hydroxypropylcellulose) (HPC)
  survivor count: 10 of 10
dose: 6.25 mg/kg/injection, schedule: Q01DX009 (ip), vehicle: Klucel (hydroxypropylcellulose) (HPC)
  survivor count: 9 of 10

## CC(=O)OC(C)c1ccccc1 (centres undefined)
[2]
  survivor count: 9 of 10

## OCCN1CCN(CCCN2c3ccccc3C=Cc3ccccc32)CC1
dose: 6.25 mg/kg/injection, schedule: Q04DX003 (ip), vehicle: saline
  T/C: 130 % of control
[3]
  survivor count: 1 of 10
dose: 100.0 mg/kg/injection, schedule: Q04DX003 (ip), vehicle: saline
  survivor count: 10 of 10
dose: 200.0 mg/kg/injection, schedule: Q01DX009 (ip), vehicle: saline
  survivor count: 0 of 10
dose: 200.0 mg/kg/injection, schedule: Q04DX003 (ip), vehicle: saline
  survivor count: 1 of 10
dose: 400.0 mg/kg/injection, schedule: Q01DX009 (ip), vehicle: saline
  survivor count: 0 of 10
dose: 400.0 mg/kg/injection, schedule: Q04DX003 (ip), vehicle: saline
  survivor count: 0 of 10

## COc1ccc([I+]c2ccc(OC)cc2)cc1
dose: 6.0 mg/kg/injection, schedule: Q01DX009 (ip), vehicle: saline with Tween-80
  survivor count: 6 of 6

## CC(C)=CCC1=C(O)c2ccccc2C(=O)C1=O
dose: 25.0 mg/kg/injection, schedule: Q01DX009 (ip), vehicle: saline with Tween-80
  survivor count: 6 of 6
dose: 25.0 mg/kg/injection, schedule: Q01DX009 (ip), vehicle: saline
  T/C: 133 % of control [5 of 6 alive]
dose: 50.0 mg/kg/injection, schedule: Q01DX009 (ip), vehicle: saline
  T/C: 127 % of control
[3]
  T/C: 127 % of control
dose: 100.0 mg/kg/injection, schedule: Q#B X027 (ip), vehicle: water
  survivor count: 4 of 6
dose: 133.33 mg/kg/injection, schedule: Q#B X027 (ip), vehicle: water
  survivor count: 0 of 6
dose: 200.0 mg/kg/injection, schedule: Q#B X027 (oral), vehicle: water
  survivor count: 1 of 6
dose: 200.0 mg/kg/injection, schedule: Q#B X027 (sc), vehicle: water
  survivor count: 0 of 6
dose: 266.66 mg/kg/injection, schedule: Q#B X027 (oral), vehicle: water
  survivor count: 1 of 6
dose: 400.0 mg/kg/injection, schedule: Q01DX009 (ip), vehicle: saline with Tween-80
  survivor count: 0 of 6

## O[C@H](c1cc(C(F)(F)F)nc2c(C(F)(F)F)cccc12)[C@@H]1CCCCN1
dose: 12.5 mg/kg/injection, schedule: Q01DX009 (ip), vehicle: Klucel (hydroxypropylcellulose) (HPC)
  survivor count: 9 of 10
dose: 18.0 mg/kg/injection, schedule: Q04DX003 (ip), vehicle: Klucel (hydroxypropylcellulose) (HPC)
  survivor count: 10 of 10
dose: 25.0 mg/kg/injection, schedule: Q01DX009 (ip), vehicle: Klucel (hydroxypropylcellulose) (HPC)
  survivor count: 10 of 10

## O=C1CC(=O)C(Br)=C1Br
dose: 0.75 mg/kg/injection, schedule: Q04DX003 (ip), vehicle: saline with Tween-80
  survivor count: 10 of 10
dose: 1.5 mg/kg/injection, schedule: Q04DX003 (ip), vehicle: saline with Tween-80
  survivor count: 9 of 10

## O=C(Nc1cccc(C(F)(F)F)c1)C(c1ccccc1)c1ccccc1
[4]
  survivor count: 10 of 10
[5]
  survivor count: 10 of 10
[2]
  survivor count: 10 of 10

## C#CCOCC1CO1 (centres undefined)
[1]
  survivor count: 3 of 6

## O=C(O)c1cccc([N+](=O)[O-])c1O
[4]
  survivor count: 10 of 10
[5]
  survivor count: 10 of 10
[2]
  survivor count: 4 of 10

## COc1cc(Cc2nccc3cc(OC)c(OC)cc23)c(C(C)=O)c(OC)c1
dose: 160.0 mg/kg/injection, schedule: Q01DX009 (ip), vehicle: saline
  survivor count: 10 of 10

## Cc1cccc2cc3c(ccc4ccccc43)c[n+]12
dose: 8.0 mg/kg/injection, schedule: Q01DX009 (ip), vehicle: saline sonified
  survivor count: 6 of 6

## N#CC1CC=CCC1 (centres undefined)
dose: 100.0 mg/kg/injection, schedule: Q04DX003 (ip), vehicle: saline with Tween-80
  survivor count: 7 of 10
dose: 200.0 mg/kg/injection, schedule: Q04DX003 (ip), vehicle: saline with Tween-80
  survivor count: 0 of 10
dose: 400.0 mg/kg/injection, schedule: Q04DX003 (ip), vehicle: saline with Tween-80
  survivor count: 0 of 10
